{"source": "ChEMBL document CHEMBL2331307", "about": "“Modulation of cytochromes P450 with xanthone-based molecules: from aromatase to aldosterone synthase and steroid 11β-hydroxylase inhibition” (J Med Chem, 2013)", "target": "T1, Steroid 17-alpha-hydroxylase/17,20 lyase (Homo sapiens, UniProt P05093)", "T1 sequence (P05093 whole entry)": "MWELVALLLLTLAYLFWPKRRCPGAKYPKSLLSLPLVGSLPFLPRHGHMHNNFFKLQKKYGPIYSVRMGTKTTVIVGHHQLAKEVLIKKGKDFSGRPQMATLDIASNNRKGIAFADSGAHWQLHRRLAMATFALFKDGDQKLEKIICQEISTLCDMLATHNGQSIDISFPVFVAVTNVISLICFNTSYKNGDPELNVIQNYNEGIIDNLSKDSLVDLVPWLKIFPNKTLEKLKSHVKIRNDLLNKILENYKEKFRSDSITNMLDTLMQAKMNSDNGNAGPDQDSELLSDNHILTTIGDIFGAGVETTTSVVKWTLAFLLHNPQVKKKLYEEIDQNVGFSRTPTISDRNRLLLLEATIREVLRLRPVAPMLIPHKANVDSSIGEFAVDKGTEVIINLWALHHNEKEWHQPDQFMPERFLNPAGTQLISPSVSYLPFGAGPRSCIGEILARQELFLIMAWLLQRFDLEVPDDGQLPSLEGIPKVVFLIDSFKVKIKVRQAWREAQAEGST", "data": [{"smiles": "N#Cc1ccc(C2CCCc3cncn32)cc1", "note": "(stereo unspecified) [FADROZOLE]", "values": [{"measurement": "IC50", "value": "> 5", "unit": "µM"}]}]}
